# Data reported in publication PMC6300487.
# No constants are given. Whether binding was seen depends on the method and setting. Binding seen in cells or lysates may run through a third protein. These calls come from enrichment with a bait or labelling near it, and not all partners need be listed. Where a sequence is shown, tags or fusion partners need not be part of it.
# T1: SFB-tagged WWOX (WW domain-containing oxidoreductase) (human) (UniProt Q9NZC7)
# T1 sequence: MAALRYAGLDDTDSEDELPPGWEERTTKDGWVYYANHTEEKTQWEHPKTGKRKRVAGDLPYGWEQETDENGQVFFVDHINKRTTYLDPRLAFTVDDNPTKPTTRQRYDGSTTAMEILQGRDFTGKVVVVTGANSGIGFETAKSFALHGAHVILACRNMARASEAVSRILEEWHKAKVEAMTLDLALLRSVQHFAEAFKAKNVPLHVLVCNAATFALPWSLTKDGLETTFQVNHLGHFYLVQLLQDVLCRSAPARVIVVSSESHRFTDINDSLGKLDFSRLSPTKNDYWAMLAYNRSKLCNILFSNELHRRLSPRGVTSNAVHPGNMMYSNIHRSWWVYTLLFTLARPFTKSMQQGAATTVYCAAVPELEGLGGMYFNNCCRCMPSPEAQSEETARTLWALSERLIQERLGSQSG
# B1: Asparagine synthetase (protein, UniProt P08243 1-561)
# chain: MCGIWALFGSDDCLSVQCLSAMKIAHRGPDAFRFENVNGYTNCCFGFHRLAVVDPLFGMQPIRVKKYPYLWLCYNGEIYNHKKMQQHFEFEYQTKVDGEIILHLYDKGGIEQTICMLDGVFAFVLLDTANKKVFLGRDTYGVRPLFKAMTEDGFLAVCSEAKGLVTLKHSATPFLKVEPFLPGHYEVLDLKPNGKVASVEMVKYHHCRDVPLHALYDNVEKLFPGFEIETVKNNLRILFNNAVKKRLMTDRRIGCLLSGGLDSSLVAATLLKQLKEAQVQYPLQTFAIGMEDSPDLLAARKVADHIGSEHYEVLFNSEEGIQALDEVIFSLETYDITTVRASVGMYLISKYIRKNTDSVVIFSGEGSDELTQGYIYFHKAPSPEKAEEESERLLRELYLFDVLRADRTTAAHGLELRVPFLDHRFSSYYLSLPPEMRIPKNGIEKHLLRETFEDSNLIPKEILWRPKEAFSDGITSVKNSWFKILQEYVEHQVDDAMMANAAQKFPFNTPKTKEGYYYRQVFERHYPGRADWLSHYWMPKWINATDPSARTLTHYKSAVKA
# B2: Dehydrogenase/reductase SDR family member 13 (protein, UniProt Q6UX07 26-377)
# chain: PPCGGMGNLRGRTAVVTGANSGIGKMTALELARRGARVVLACRSQERGEAAAFDLRQESGNNEVIFMALDLASLASVRAFATAFLSSEPRLDILIHNAGISSCGRTREAFNLLLRVNHIGPFLLTHLLLPCLKACAPSRVVVVASAAHCRGRLDFKRLDRPVVGWRQELRAYADTKLANVLFARELANQLEATGVTCYAAHPGPVNSELFLRHVPGWLRPLLRPLAWLVLRAPRGGAQTPLYCALQEGIEPLSGRYFANCHVEEVPPAARDDRAAHRLWEASKRLAGLGPGEDAEPDEDPQSEDSEAPSSLSTPHPEEPTVSQPYPSPQSSPDLSKMTHRIQAKVEPEIQLS
# B3: Farnesyl-Diphosphate Farnesyltransferase 1 (protein, UniProt P37268 1-417)
# chain: MEFVKCLGHPEEFYNLVRFRIGGKRKVMPKMDQDSLSSSLKTCYKYLNQTSRSFAAVIQALDGEMRNAVCIFYLVLRALDTLEDDMTISVEKKVPLLHNFHSFLYQPDWRFMESKEKDRQVLEDFPTISLEFRNLAEKYQTVIADICRRMGIGMAEFLDKHVTSEQEWDKYCHYVAGLVGIGLSRLFSASEFEDPLVGEDTERANSMGLFLQKTNIIRDYLEDQQGGREFWPQEVWSRYVKKLGDFAKPENIDLAVQCLNELITNALHHIPDVITYLSRLRNQSVFNFCAIPQVMAIATLAACYNNQQVFKGAVKIRKGQAVTLMMDATNMPAVKAIIYQYMEEIYHRIPDSDPSSSKTRQIISTIRTQNLPNCQLISRSHYSPIYLSFVMLLAALSWQYLTTLSQVTEDYVQTGEH
# B4: Threonyl-tRNA Synthetase (protein, UniProt P26639 1-723)
# chain: MFEEKASSPSGKMGGEEKPIGAGEEKQKEGGKKKNKEGSGDGGRAELNPWPEYIYTRLEMYNILKAEHDSILAEKAEKDSKPIKVTLPDGKQVDAESWKTTPYQIACGISQGLADNTVIAKVNNVVWDLDRPLEEDCTLELLKFEDEEAQAVYWHSSAHIMGEAMERVYGGCLCYGPPIENGFYYDMYLEEGGVSSNDFSSLEALCKKIIKEKQAFERLEVKKETLLAMFKYNKFKCRILNEKVNTPTTTVYRCGPLIDLCRGPHVRHTGKIKALKIHKNSSTYWEGKADMETLQRIYGISFPDPKMLKEWEKFQEEAKNRDHRKIGRDQELYFFHELSPGSCFFLPKGAYIYNALIEFIRSEYRKRGFQEVVTPNIFNSRLWMTSGHWQHYSENMFSFEVEKELFALKPMNCPGHCLMFDHRPRSWRELPLRLADFGVLHRNELSGALTGLTRVRRFQQDDAHIFCAMEQIEDEIKGCLDFLRTVYSVFGFSFKLNLSTRPEKFLGDIEVWDQAEKQLENSLNEFGEKWELNSGDGAFYGPKIDIQIKDAIGRYHQCATIQLDFQLPIRFNLTYVSHDGDDKKRPVIVHRAILGSVERMIAILTENYGGKWPFWLSPRQVMVVPVGPTCDEYAQKVRQQFHDAKFMADIDLDPGCTLNKKIRNAQLAQYNFILVVGEKEKISGTVNIRTRDNKVHGERTISETIERLQQLKEFRSKQAEEEF
# B5: 3-hydroxyacyl-CoA dehydrogenase type-2 (protein, UniProt Q99714 1-261)
# chain: MAAACRSVKGLVAVITGGASGLGLATAERLVGQGASAVLLDLPNSGGEAQAKKLGNNCVFAPADVTSEKDVQTALALAKGKFGRVDVAVNCAGIAVASKTYNLKKGQTHTLEDFQRVLDVNLMGTFNVIRLVAGEMGQNEPDQGGQRGVIINTASVAAFEGQVGQAAYSASKGGIVGMTLPIARDLAPIGIRVMTIAPGLFGTPLLTSLPEKVCNFLASQVPFPSRLGDPAEYAHLVQAIIENPFLNGEVIRLDGAIRMQP
# B6: Rap guanine nucleotide exchange factor 2 (protein, UniProt Q9Y4G8 1-1499)
# chain: MKPLAIPANHGVMGQQEKHSLPADFTKLHLTDSLHPQVTHVSSSHSGCSITSDSGSSSLSDIYQATESEAGDMDLSGLPETAVDSEDDDDEEDIERASDPLMSRDIVRDCLEKDPIDRTDDDIEQLLEFMHQLPAFANMTMSVRRELCAVMVFAVVERAGTIVLNDGEELDSWSVILNGSVEVTYPDGKAEILCMGNSFGVSPTMDKEYMKGVMRTKVDDCQFVCIAQQDYCRILNQVEKNMQKVEEEGEIVMVKEHRELDRTGTRKGHIVIKGTSERLTMHLVEEHSVVDPTFIEDFLLTYRTFLSSPMEVGKKLLEWFNDPSLRDKVTRVVLLWVNNHFNDFEGDPAMTRFLEEFENNLEREKMGGHLRLLNIACAAKAKRRLMTLTKPSREAPLPFILLGGSEKGFGIFVDSVDSGSKATEAGLKRGDQILEVNGQNFENIQLSKAMEILRNNTHLSITVKTNLFVFKELLTRLSEEKRNGAPHLPKIGDIKKASRYSIPDLAVDVEQVIGLEKVNKKSKANTVGGRNKLKKILDKTRISILPQKPYNDIGIGQSQDDSIVGLRQTKHIPTALPVSGTLSSSNPDLLQSHHRILDFSATPDLPDQVLRVFKADQQSRYIMISKDTTAKEVVIQAIREFAVTATPDQYSLCEVSVTPEGVIKQRRLPDQLSKLADRIQLSGRYYLKNNMETETLCSDEDAQELLRESQISLLQLSTVEVATQLSMRNFELFRNIEPTEYIDDLFKLRSKTSCANLKRFEEVINQETFWVASEILRETNQLKRMKIIKHFIKIALHCRECKNFNSMFAIISGLNLAPVARLRTTWEKLPNKYEKLFQDLQDLFDPSRNMAKYRNVLNSQNLQPPIIPLFPVIKKDLTFLHEGNDSKVDGLVNFEKLRMIAKEIRHVGRMASVNMDPALMFRTRKKKWRSLGSLSQGSTNATVLDVAQTGGHKKRVRRSSFLNAKKLYEDAQMARKVKQYLSNLELEMDEESLQTLSLQCEPATNTLPKNPGDKKPVKSETSPVAPRAGSQQKAQSLPQPQQQPPPAHKINQGLQVPAVSLYPSRKKVPVKDLPPFGINSPQALKKILSLSEEGSLERHKKQAEDTISNASSQLSSPPTSPQSSPRKGYTLAPSGTVDNFSDSGHSEISSRSSIVSNSSFDSVPVSLHDERRQRHSVSIVETNLGMGRMERRTMIEPDQYSLGSYAPMSEGRGLYATATVISSPSTEELSQDQGDRASLDAADSGRGSWTSCSSGSHDNIQTIQHQRSWETLPFGHTHFDYSGDPAGLWASSSHMDQIMFSDHSTKYNRQNQSRESLEQAQSRASWASSTGYWGEDSEGDTGTIKRRGGKDVSIEAESSSLTSVTTEETKPVPMPAHIAVASSTTKGLIARKEGRYREPPPTPPGYIGIPITDFPEGHSHPARKPPDYNVALQRSRMVARSSDTAGPSSVQQPHGHPTSSRPVNKPQWHKPNESDPRLAPYQSQGFSTEEDEDEQVSAV
# B7: HIRA-interacting protein 3 (protein, UniProt Q9BW71 1-556)
# chain: MAREKEMQEFTRSFFRGRPDLSTLTHSIVRRRYLAHSGRSHLEPEEKQALKRLVEEELLKMQVDEAASREDKLDLTKKGKRPPTPCSDPERKRFRFNSESESGSEASSPDYFGPPAKNGVAAEVSPAKEENPRRASKAVEESSDEERQRDLPAQRGEESSEEEEKGYKGKTRKKPVVKKQAPGKASVSRKQAREESEESEAEPVQRTAKKVEGNKGTKSLKESEQESEEEILAQKKEQREEEVEEEEKEEDEEKGDWKPRTRSNGRRKSAREERSCKQKSQAKRLLGDSDSEEEQKEAASSGDDSGRDREPPVQRKSEDRTQLKGGKRLSGSSEDEEDSGKGEPTAKGSRKMARLGSTSGEESDLEREVSDSEAGGGPQGERKNRSSKKSSRKGRTRSSSSSSDGSPEAKGGKAGSGRRGEDHPAVMRLKRYIRACGAHRNYKKLLGSCCSHKERLSILRAELEALGMKGTPSLGKCRALKEQREEAAEVASLDVANIISGSGRPRRRTAWNPLGEAAPPGELYRRTLDSDEERPRPAPPDWSHMRGIISSDGESN
# B8: PDHB subunit of pyruvate dehydrogenase (PDC component E1) (protein, UniProt P11177 31-359)
# chain: LQVTVRDAINQGMDEELERDEKVFLLGEEVAQYDGAYKVSRGLWKKYGDKRIIDTPISEMGFAGIAVGAAMAGLRPICEFMTFNFSMQAIDQVINSAAKTYYMSGGLQPVPIVFRGPNGASAGVAAQHSQCFAAWYGHCPGLKVVSPWNSEDAKGLIKSAIRDNNPVVVLENELMYGVPFEFPPEAQSKDFLIPIGKAKIERQGTHITVVSHSRPVGHCLEAAAVLSKEGVECEVINMRTIRPMDMETIEASVMKTNHLVTVEGGWPQFGVGAEICARIMEGPAFNFLDAPAVRVTGADVPMPYAKILEDNSIPQVKDIIFAIKKTLNI
# B9: dihydrolipoamide acetyltransferase (PDC component E2) (protein, UniProt P10515 87-647)
# chain: SLPPHQKVPLPSLSPTMQAGTIARWEKKEGDKINEGDLIAEVETDKATVGFESLEECYMAKILVAEGTRDVPIGAIICITVGKPEDIEAFKNYTLDSSAAPTPQAAPAPTPAATASPPTPSAQAPGSSYPPHMQVLLPALSPTMTMGTVQRWEKKVGEKLSEGDLLAEIETDKATIGFEVQEEGYLAKILVPEGTRDVPLGTPLCIIVEKEADISAFADYRPTEVTDLKPQVPPPTPPPVAAVPPTPQPLAPTPSAPCPATPAGPKGRVFVSPLAKKLAVEKGIDLTQVKGTGPDGRITKKDIDSFVPSKVAPAPAAVVPPTGPGMAPVPTGVFTDIPISNIRRVIAQRLMQSKQTIPHYYLSIDVNMGEVLLVRKELNKILEGRSKISVNDFIIKASALACLKVPEANSSWMDTVIRQNHVVDVSVAVSTPAGLITPIVFNAHIKGVETIANDVVSLATKAREGKLQPHEFQGGTFTISNLGMFGIKNFSAIINPPQACILAIGASEDKLVPADNEKGFDVASMMSVTLSCDHRVVDGAVGAQWLAEFRKYLEKPITMLL
# Molecular target: T1, SFB-tagged WWOX (WW domain-containing oxidoreductase) (human)
# Test: affinity purification with mass spectrometry; tandem affinity purification from lysate (NETN buffer) of HEK293T cells stably expressing C-terminally SFB-tagged WWOX: streptavidin beads, elution with 2 mg/ml biotin, then S protein beads; LC-MS/MS; two replicates; hits filtered by MUSE interaction score and CRAPome frequency
row,Binder,binding
1,B1,binds
2,B2,binds
3,B3,binds
4,B4,binds
5,B5,binds
6,B6,binds
7,B7,binds
8,B8,binds
9,B9,binds
